# Earlier results as cited in patent publication US20230148258A1, “SPERMIDINE-SUPPLEMENTED FOOD PRODUCTS” (KALIN HEALTH LLC, priority 2020, published 2023).
# Some entries share one result that the patent states for a list of compounds.
# Conditions: ingested; upper part of the intestine; cited from earlier work
smiles,measurement,value
NCCCCNCCCN [spermidine],fraction absorbed in the lumen,70-80%
